# Drug screen on melanoma cell lines: cell count

Data from the primary screen of doi:10.1371/journal.pone.0140310, rounded.

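Human melanoma cells were exposed to a pair of drugs for 72 h in 1,536-well plates and read by automated microscopy after fixing and staining. Each value is the count of nuclei relative to DMSO-treated wells, in %, so that 100 equals the control. Every drug was used at one fixed concentration, the higher of two screened. The file gives one value for each pair and line, without errors, so small differences may be noise.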 An unselected part of the screen is shown.

Drugs:
temozolomide (10000 nM): Cn1nnc2c(C(N)=O)ncn2c1=O
cediranib (2000 nM): COc1cc2c(Oc3ccc4[nH]c(C)cc4c3F)ncnc2cc1OCCCN1CCCC1
YM155 (2 nM): COCC[n+]1c2c(n(Cc3cnccn3)c1C)C(=O)c1ccccc1C2=O
gemcitabine (2 nM): Nc1ccn([C@@H]2O[C@H](CO)[C@@H](O)C2(F)F)c(=O)n1
FK866 (50 nM): O=C(/C=C/c1cccnc1)NCCCCC1CCN(C(=O)c2ccccc2)CC1
XAV939 (10000 nM): Oc1nc(-c2ccc(C(F)(F)F)cc2)nc2c1CSCC2
SU6656 (2000 nM): CN(C)S(=O)(=O)c1ccc2c(c1)/C(=C/c1cc3c([nH]1)CCCC3)C(=O)N2
MK-2206 (2000 nM): NC1(c2ccc(-c3nc4ccn5c(=O)[nH]nc5c4cc3-c3ccccc3)cc2)CCC1
vorinostat (400 nM): O=C(CCCCCCC(=O)Nc1ccccc1)NO
palbociclib (200 nM): CC(=O)c1c(C)c2cnc(Nc3ccc(N4CCNCC4)cn3)nc2n(C2CCCC2)c1=O

Combination | WM451Lu
palbociclib and SU6656 | 63.7
palbociclib and vorinostat | 51.8
gemcitabine and YM155 | 25.1
vorinostat and temozolomide | 82.1
palbociclib and FK866 | 55.1
FK866 and vorinostat | 94.4
FK866 and XAV939 | 129
gemcitabine and cediranib | 53.8
temozolomide and palbociclib | 74.6
gemcitabine and SU6656 | 55.1
gemcitabine and XAV939 | 54.8
temozolomide and gemcitabine | 53.5
vorinostat and XAV939 | 76.5
cediranib and temozolomide | 85.3
MK-2206 and SU6656 | 88.5
XAV939 and temozolomide | 102
SU6656 and temozolomide | 78.6
FK866 and SU6656 | 86.5
XAV939 and palbociclib | 53.5
YM155 and XAV939 | 46.8
cediranib and YM155 | 47.0
gemcitabine and palbociclib | 51.8
cediranib and FK866 | 109
SU6656 and vorinostat | 69.3
cediranib and vorinostat | 89.7
MK-2206 and FK866 | 88.7
MK-2206 and cediranib | 120
SU6656 and XAV939 | 91.3
YM155 and MK-2206 | 28.6
palbociclib and cediranib | 73.4
SU6656 and cediranib | 56.0
MK-2206 and gemcitabine | 36.5
MK-2206 and XAV939 | 111

2 of the entries, repeated:

* cediranib and temozolomide : WM451Lu: 85.3
* MK-2206 and SU6656 : WM451Lu: 88.5